PubChem BioAssay AID652243 | Drosophila RNAi Screening Center | 2013
Aim: 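Fly regulators of androgen-dependent reporter output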 (primary screen). Cell system: Drosophila S2R+ cells. Reagent: long dsRNA against Drosophila genes. Timing: 72 h (48 h, then 24 h hormone). Conditions: synthetic androgen R1881 at 10 nM for 24 h. Detection: 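Firefly light from an androgen-responsive reporter and Renilla control light per well, raw and unnormalised, for each of two replicates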. Scale: firefly reporter light: higher = more light from androgen-responsive reporter; Renilla control light: higher = more constitutive control signal (cell number, transfection). Call rule: 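Across duplicate plates, a knock-down whose log firefly/Renilla ratio shifted a set fold down or up from the GFP/LacZ control mean was a hit; the downward cut appears as both 1.5 and 3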. Meaning of the calls: active = hit: reporter lowered or raised; inactive = no hit.
In all, the deposit lists about 24,000 reagents; this is a random part of those with a known target gene and a result. In the full data, 246 (1%) were called active. 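Plates not normalised; calls are printed but the firefly/Renilla ratio behind them is not deposited; fold cut for lowering reported inconsistently.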 The raw values are shown without normalisation. Names joined by + are all predicted targets of the reagent. Reagent sequences are not shown. The record does not give: the amount of reagent.

What did the screen give for Cka [DRSC03476]?
firefly reporter light, replicate 1: 3.15e5; firefly reporter light, replicate 2: 3.28e5; Renilla control light, replicate 1: 2.77e6; Renilla control light, replicate 2: 2.84e6; outcome: inactive

For Cka [DRSC22858], how do the results read?
firefly reporter light, replicate 1: 3.93e5; firefly reporter light, replicate 2: 6.94e5; Renilla control light, replicate 1: 4.87e5; Renilla control light, replicate 2: 7.14e5; outcome: inactive

For CG30148 [DRSC06391], what was measured?
firefly reporter light, replicate 1: 4.23e5; firefly reporter light, replicate 2: 4.93e5; Renilla control light, replicate 1: 2.63e6; Renilla control light, replicate 2: 3.38e6; outcome: inactive

Which result is listed for RpL10 [DRSC11947]?
firefly reporter light, replicate 1: 2.32e5; firefly reporter light, replicate 2: 1.85e5; Renilla control light, replicate 1: 3.74e6; Renilla control light, replicate 2: 4.10e6; outcome: inactive

How did the screen score Cyp28a5 [DRSC03297]?
firefly reporter light, replicate 1: 7.48e5; firefly reporter light, replicate 2: 8.96e5; Renilla control light, replicate 1: 1.47e6; Renilla control light, replicate 2: 2.71e6; outcome: inactive

For Naam [DRSC16252], what does the deposit list?
firefly reporter light, replicate 1: 2.74e5; firefly reporter light, replicate 2: 3.89e5; Renilla control light, replicate 1: 3.93e6; Renilla control light, replicate 2: 3.51e6; outcome: inactive

What did the screen give for ci [DRSC17172]?
firefly reporter light, replicate 1: 1.64e5; firefly reporter light, replicate 2: 1.65e5; Renilla control light, replicate 1: 1.67e6; Renilla control light, replicate 2: 1.83e6; outcome: inactive

How did the screen score CG14342 [DRSC00372]?
firefly reporter light, replicate 1: 1.62e5; firefly reporter light, replicate 2: 1.23e5; Renilla control light, replicate 1: 7.64e5; Renilla control light, replicate 2: 9.46e5; outcome: inactive

For CG14342 [DRSC25128], what does the deposit list?
firefly reporter light, replicate 1: 8.74e5; firefly reporter light, replicate 2: 8.94e5; Renilla control light, replicate 1: 1.39e6; Renilla control light, replicate 2: 1.18e6; outcome: inactive

For asRNA:CR43468 + Lfg [DRSC06853], what was measured?
firefly reporter light, replicate 1: 3.46e5; firefly reporter light, replicate 2: 2.78e5; Renilla control light, replicate 1: 1.73e6; Renilla control light, replicate 2: 1.73e6; outcome: inactive

How did the screen score Nemp [DRSC20206]?
firefly reporter light, replicate 1: 64842; firefly reporter light, replicate 2: 77511; Renilla control light, replicate 1: 8.23e5; Renilla control light, replicate 2: 6.49e5; outcome: inactive

For Nemp [DRSC26963], what was measured?
firefly reporter light, replicate 1: 3.97e5; firefly reporter light, replicate 2: 3.86e5; Renilla control light, replicate 1: 6.47e5; Renilla control light, replicate 2: 5.35e5; outcome: inactive

What is on record for CG11663 [DRSC23063]?
firefly reporter light, replicate 1: 7.62e5; firefly reporter light, replicate 2: 9.48e5; Renilla control light, replicate 1: 7.26e5; Renilla control light, replicate 2: 8.16e5; outcome: inactive

What is on record for rpk [DRSC12386]?
firefly reporter light, replicate 1: 39667; firefly reporter light, replicate 2: 33413; Renilla control light, replicate 1: 3.38e5; Renilla control light, replicate 2: 4.12e5; outcome: inactive

Which result is listed for rpk [DRSC21656]?
firefly reporter light, replicate 1: 7.03e5; firefly reporter light, replicate 2: 7.26e5; Renilla control light, replicate 1: 1.99e6; Renilla control light, replicate 2: 2.01e6; outcome: inactive

2 consecutive entries from above:
CG30148 [DRSC06391] → firefly reporter light, replicate 1 = 4.23e5; firefly reporter light, replicate 2 = 4.93e5; Renilla control light, replicate 1 = 2.63e6; Renilla control light, replicate 2 = 3.38e6; outcome = inactive
RpL10 [DRSC11947] → firefly reporter light, replicate 1 = 2.32e5; firefly reporter light, replicate 2 = 1.85e5; Renilla control light, replicate 1 = 3.74e6; Renilla control light, replicate 2 = 4.10e6; outcome = inactive

Further records follow.
What did the screen give for CG11698 [DRSC14355]?
firefly reporter light, replicate 1: 4.92e5; firefly reporter light, replicate 2: 5.43e5; Renilla control light, replicate 1: 1.71e6; Renilla control light, replicate 2: 3.00e6; outcome: inactive

For IP3K1 [DRSC02734], how do the results read?
firefly reporter light, replicate 1: 7.19e5; firefly reporter light, replicate 2: 1.05e6; Renilla control light, replicate 1: 2.16e6; Renilla control light, replicate 2: 2.17e6; outcome: inactive

How did the screen score l(2)09851 [DRSC04858]?
firefly reporter light, replicate 1: 4.96e5; firefly reporter light, replicate 2: 5.40e5; Renilla control light, replicate 1: 3.06e6; Renilla control light, replicate 2: 2.83e6; outcome: inactive

With ATP8B [DRSC14961], what was measured?
firefly reporter light, replicate 1: 65358; firefly reporter light, replicate 2: 46933; Renilla control light, replicate 1: 3.75e5; Renilla control light, replicate 2: 4.27e5; outcome: inactive

For Hacl [DRSC06061], what was measured?
firefly reporter light, replicate 1: 9.36e5; firefly reporter light, replicate 2: 5.09e5; Renilla control light, replicate 1: 1.21e6; Renilla control light, replicate 2: 8.55e5; outcome: inactive

How did the screen score CG9171 [DRSC03152]?
firefly reporter light, replicate 1: 7.29e5; firefly reporter light, replicate 2: 6.61e5; Renilla control light, replicate 1: 2.02e6; Renilla control light, replicate 2: 2.33e6; outcome: inactive

With CG9171 [DRSC21813], what does the deposit list?
firefly reporter light, replicate 1: 4.92e5; firefly reporter light, replicate 2: 3.89e5; Renilla control light, replicate 1: 3.07e6; Renilla control light, replicate 2: 3.95e6; outcome: inactive

For CG9171 [DRSC24830], what was measured?
firefly reporter light, replicate 1: 1.02e6; firefly reporter light, replicate 2: 7.77e5; Renilla control light, replicate 1: 1.41e6; Renilla control light, replicate 2: 1.42e6; outcome: inactive

With Hers [DRSC19429], what does the deposit list?
firefly reporter light, replicate 1: 42680; firefly reporter light, replicate 2: 73689; Renilla control light, replicate 1: 6.92e5; Renilla control light, replicate 2: 6.58e5; outcome: inactive

With Hers [DRSC19676], what does the deposit list?
firefly reporter light, replicate 1: 1.27e5; firefly reporter light, replicate 2: 1.21e5; Renilla control light, replicate 1: 9.26e5; Renilla control light, replicate 2: 3.41e5; outcome: inactive

For Hers [DRSC24330], what was measured?
firefly reporter light, replicate 1: 5.77e5; firefly reporter light, replicate 2: 6.98e5; Renilla control light, replicate 1: 5.20e5; Renilla control light, replicate 2: 6.99e5; outcome: inactive

What is on record for eIF3g2 [DRSC14275]?
firefly reporter light, replicate 1: 2.27e5; firefly reporter light, replicate 2: 2.59e5; Renilla control light, replicate 1: 1.66e6; Renilla control light, replicate 2: 2.02e6; outcome: inactive

What is on record for eIF3g2 [DRSC28960]?
firefly reporter light, replicate 1: 4.41e5; firefly reporter light, replicate 2: 3.70e5; Renilla control light, replicate 1: 1.69e6; Renilla control light, replicate 2: 1.50e6; outcome: active
